PMC9610606, “Design, Synthesis, In Silico Testing, and In Vitro Evaluation of Thiazolidinone-Based Benzothiazole Derivatives as Inhibitors of α-Amylase and α-Glucosidase” (Pharmaceuticals, 2022)
pIC50: −log10 of the molar value. The structures given here were assigned with low confidence; some may be wrong.

The chains behind the UniProt entries cited, without tags or fusion partners. Residues count along the entry.
UniProt P53341, whole entry: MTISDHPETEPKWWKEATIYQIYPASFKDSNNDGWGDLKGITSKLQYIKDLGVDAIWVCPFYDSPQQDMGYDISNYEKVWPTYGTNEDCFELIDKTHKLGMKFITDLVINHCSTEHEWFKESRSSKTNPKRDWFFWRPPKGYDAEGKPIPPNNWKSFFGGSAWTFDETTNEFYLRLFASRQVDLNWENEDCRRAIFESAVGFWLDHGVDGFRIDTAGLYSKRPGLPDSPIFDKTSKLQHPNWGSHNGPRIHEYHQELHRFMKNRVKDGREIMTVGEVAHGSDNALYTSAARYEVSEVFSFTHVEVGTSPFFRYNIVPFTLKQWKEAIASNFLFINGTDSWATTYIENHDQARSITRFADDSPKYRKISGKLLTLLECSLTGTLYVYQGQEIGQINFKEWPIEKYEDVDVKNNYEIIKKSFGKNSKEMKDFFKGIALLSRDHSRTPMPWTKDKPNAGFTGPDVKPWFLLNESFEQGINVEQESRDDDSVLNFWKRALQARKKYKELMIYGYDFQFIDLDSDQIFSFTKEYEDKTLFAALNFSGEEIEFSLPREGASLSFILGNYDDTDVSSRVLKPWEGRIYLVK
UniProt P00690, 16-511 limits assumed: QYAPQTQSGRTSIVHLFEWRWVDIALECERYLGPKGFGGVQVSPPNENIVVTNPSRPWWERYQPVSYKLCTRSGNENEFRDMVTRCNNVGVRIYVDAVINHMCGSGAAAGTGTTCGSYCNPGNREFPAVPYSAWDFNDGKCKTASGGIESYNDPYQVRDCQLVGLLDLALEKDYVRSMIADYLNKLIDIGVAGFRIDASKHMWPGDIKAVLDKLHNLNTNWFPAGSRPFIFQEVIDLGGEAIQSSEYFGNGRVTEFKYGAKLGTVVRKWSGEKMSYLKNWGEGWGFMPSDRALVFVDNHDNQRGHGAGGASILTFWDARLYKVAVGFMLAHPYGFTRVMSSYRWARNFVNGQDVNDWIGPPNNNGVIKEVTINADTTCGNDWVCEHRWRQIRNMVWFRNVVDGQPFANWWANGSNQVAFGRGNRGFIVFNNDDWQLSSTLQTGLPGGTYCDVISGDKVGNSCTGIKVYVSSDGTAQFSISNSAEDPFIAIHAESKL

How the values were obtained:
[1] = biological target: α-glucosidase (Saccharomyces cerevisiae, UniProt P53341); conditions: read-out: α-Glucosidase IC50
[2] = biological target: α-amylase (Sus scrofa, UniProt P00690); assay: In vitro α-amylase inhibitory assay; assay type: biochemical; conditions: read-out: α-Amylase IC50

Row | Compound | pIC50 [1] | pIC50 [2]
1 | O=C1N/C(=N/c2nccs2)S/C1=C\c1cc(F)c2ncsc2c1 | 5.46 | 5.62
2 | O=C1N/C(=N/c2nccs2)S/C1=C\c1cc2scnc2c(Cl)c1[N+](=O)[O-] |  | 5.00
3 | O=C1N/C(=N/c2nccs2)S/C1=C\c1cc2scnc2c(Cl)c1Cl | 4.86 | 4.88
4 | O=C1N/C(=N/c2nccs2)S/C1=C\c1cc2scnc2cc1F | 5.32 | 5.64
5 | O=C1N/C(=N/c2nccs2)S/C1=C\c1c(O)cc2ncsc2c1Cl | 5.01 | 5.10
6 | COc1cc2ncsc2c(O)c1/C=C1\S/C(=N\c2nccs2)NC1=O | 4.90 | 4.94
7 | O=C1N/C(=N/c2nccs2)S/C1=C\c1ccc2ncsc2c1Cl | 4.98 | 5.01
8 | O=C1N/C(=N/c2nccs2)S/C1=C\c1cc(O)c2ncsc2c1Cl | 4.95 | 4.99
9 | O=C1N/C(=N/c2nccs2)S/C1=C\c1cc([N+](=O)[O-])c2ncsc2c1 | 5.14 | 5.18
10 | O=C1N/C(=N/c2nccs2)S/C1=C\c1cc(O)c2ncsc2c1O | 5.35 | 5.41
